# Assay results reported in patent publication US20230331823A1.
# No constants are given. Whether binding was seen depends on the method and setting. A result given as binding can be weak or reduced; the word gives no strength.
# Target: HKU9 CoV stabilized S trimer ([change]) (HKU9 CoV)
# Experiment: BLI, trimer at 30 µg/ml
binder,measurement,value
MoB3-3D8 nanobody (ShAb02 single domain VNAR) (VNAR) VNAR: ARVDQTPQTITKETGESLTINCVLRDSNCALASTDWYRKKSGSTNEESISKGGRYVETVNSGSKSFSLRINDLTVEDSGTYRCNAWDSWETRQLKCDYDVYGGGTVVTVN,binding,binds
